This note sets out measurements from PMC9064986.

T1: Recombinant human BMP10 growth factor (GF)-domain (R&D Systems) (human) (UniProt O95393)
T1 sequence: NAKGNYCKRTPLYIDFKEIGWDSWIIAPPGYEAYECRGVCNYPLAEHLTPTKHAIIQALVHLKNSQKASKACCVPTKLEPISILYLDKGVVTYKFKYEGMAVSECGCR

B1: BMPRII ECD Y67C (domain or fragment, UniProt Q13873-1 27-150)
chain: SQNQERLCAFKDPYQQDLGIGESRISHENGTILCSKGSTCCGLWEKSKGDINLVKQGCWSHIGDPQECHYEECVVTTTPPSIQNGTYRFCCCSTDLCNVNFTENFPPPDTTPLSPPHSFNRDET
B2: BMPRII ECD G83E (domain or fragment, UniProt Q13873-1 27-150)
chain: B1 chain with C41Y, G57E
B3: BMPRII ECD G68D (domain or fragment, UniProt Q13873-1 27-150)
chain: B1 chain with C41Y, G42D

Changes are numbered by the printed parent chain. In names and notes the source's numbering stands. These are yes or no findings as the source states them, for the method shown.

The assay has as its target T1, Recombinant human BMP10 growth factor (GF)-domain (R&D Systems) (human). As to the kind of experiment: SPR; Biacore T200; BMP10 GF-domain amine-coupled to a CM5 chip (1300 RU); ALK1-Fc, BMPRII-Fc or monomeric BMPRII WT and mutant ECDs injected at 40 ul/min; 10 mM HEPES pH 7.4, 150 mM NaCl, 3.4 mM EDTA, 0.5 mg/ml BSA, 0.005% P20, 25 °C; 1:1 model, KD = kd/ka; both purified.
As for B1, the binding entry is “no binding”.
As to B2, the binding entry is on record as “no binding”.
The result for B3 reads “no binding”.
